This is an account of results in the supplement of paper PMC12823440, “Inhibitors supercharge kinase turnover through native proteolytic circuits” (Nature, 2025).

Amino acid sequences for entries named in this document (tags omitted). A change or cut given only in a name is not applied to a line headed by its entry.
UniProt P50613: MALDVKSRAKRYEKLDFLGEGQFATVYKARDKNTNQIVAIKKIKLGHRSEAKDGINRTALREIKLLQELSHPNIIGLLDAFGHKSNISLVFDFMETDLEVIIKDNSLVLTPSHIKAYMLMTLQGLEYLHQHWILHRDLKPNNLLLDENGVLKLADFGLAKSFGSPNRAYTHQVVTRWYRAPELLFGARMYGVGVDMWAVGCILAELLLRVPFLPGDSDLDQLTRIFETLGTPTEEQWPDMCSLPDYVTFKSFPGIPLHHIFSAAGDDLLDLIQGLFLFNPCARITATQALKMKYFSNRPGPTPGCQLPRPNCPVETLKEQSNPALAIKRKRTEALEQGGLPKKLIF
UniProt P50750, whole entry: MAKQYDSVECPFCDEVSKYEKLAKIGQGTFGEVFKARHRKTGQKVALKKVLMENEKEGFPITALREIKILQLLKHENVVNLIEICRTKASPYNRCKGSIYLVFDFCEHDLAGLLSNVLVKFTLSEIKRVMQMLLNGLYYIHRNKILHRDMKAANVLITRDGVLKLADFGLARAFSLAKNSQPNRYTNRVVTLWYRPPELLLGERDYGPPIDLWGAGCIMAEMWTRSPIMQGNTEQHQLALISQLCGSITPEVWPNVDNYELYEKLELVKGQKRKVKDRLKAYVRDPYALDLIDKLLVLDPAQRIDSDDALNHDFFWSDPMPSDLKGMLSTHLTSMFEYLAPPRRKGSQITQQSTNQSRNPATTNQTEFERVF
UniProt O96017, whole entry: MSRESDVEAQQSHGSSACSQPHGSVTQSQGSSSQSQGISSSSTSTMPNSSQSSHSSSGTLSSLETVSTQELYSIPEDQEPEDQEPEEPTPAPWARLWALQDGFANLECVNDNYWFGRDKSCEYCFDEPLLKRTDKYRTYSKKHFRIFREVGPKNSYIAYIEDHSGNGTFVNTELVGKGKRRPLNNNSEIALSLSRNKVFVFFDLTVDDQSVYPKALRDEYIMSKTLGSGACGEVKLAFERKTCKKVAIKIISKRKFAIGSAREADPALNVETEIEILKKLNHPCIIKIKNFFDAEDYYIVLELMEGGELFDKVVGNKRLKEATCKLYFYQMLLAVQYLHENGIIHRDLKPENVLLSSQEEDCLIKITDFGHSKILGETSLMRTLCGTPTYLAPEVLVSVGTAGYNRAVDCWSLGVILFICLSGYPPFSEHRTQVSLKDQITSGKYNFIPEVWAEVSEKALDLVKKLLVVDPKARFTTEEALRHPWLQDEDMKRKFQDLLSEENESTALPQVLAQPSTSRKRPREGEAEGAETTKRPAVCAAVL
UniProt P07333, whole entry: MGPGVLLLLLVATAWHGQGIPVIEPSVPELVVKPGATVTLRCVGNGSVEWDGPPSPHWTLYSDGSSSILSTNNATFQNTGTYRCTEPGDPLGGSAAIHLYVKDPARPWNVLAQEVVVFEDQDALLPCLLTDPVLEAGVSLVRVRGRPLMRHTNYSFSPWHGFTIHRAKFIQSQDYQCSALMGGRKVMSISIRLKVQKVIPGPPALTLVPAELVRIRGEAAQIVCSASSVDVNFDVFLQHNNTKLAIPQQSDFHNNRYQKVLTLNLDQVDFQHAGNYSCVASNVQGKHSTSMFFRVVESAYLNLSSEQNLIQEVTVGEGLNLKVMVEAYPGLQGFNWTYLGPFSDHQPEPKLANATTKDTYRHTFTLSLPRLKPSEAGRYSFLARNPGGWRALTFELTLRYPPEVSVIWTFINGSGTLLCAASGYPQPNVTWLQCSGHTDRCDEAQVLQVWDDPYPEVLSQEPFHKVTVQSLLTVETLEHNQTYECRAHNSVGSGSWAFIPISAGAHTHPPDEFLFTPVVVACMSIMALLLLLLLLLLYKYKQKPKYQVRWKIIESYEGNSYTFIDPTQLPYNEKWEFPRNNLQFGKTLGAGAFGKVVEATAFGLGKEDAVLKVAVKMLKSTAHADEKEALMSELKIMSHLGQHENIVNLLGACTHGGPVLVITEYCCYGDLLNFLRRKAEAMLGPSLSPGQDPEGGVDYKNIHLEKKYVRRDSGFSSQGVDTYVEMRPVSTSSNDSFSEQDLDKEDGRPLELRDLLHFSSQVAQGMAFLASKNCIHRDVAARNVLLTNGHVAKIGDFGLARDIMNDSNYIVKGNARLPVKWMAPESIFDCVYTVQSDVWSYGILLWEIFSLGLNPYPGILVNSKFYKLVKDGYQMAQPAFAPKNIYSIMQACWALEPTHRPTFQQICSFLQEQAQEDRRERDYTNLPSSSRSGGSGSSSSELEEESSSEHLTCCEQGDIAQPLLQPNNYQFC
UniProt P41240: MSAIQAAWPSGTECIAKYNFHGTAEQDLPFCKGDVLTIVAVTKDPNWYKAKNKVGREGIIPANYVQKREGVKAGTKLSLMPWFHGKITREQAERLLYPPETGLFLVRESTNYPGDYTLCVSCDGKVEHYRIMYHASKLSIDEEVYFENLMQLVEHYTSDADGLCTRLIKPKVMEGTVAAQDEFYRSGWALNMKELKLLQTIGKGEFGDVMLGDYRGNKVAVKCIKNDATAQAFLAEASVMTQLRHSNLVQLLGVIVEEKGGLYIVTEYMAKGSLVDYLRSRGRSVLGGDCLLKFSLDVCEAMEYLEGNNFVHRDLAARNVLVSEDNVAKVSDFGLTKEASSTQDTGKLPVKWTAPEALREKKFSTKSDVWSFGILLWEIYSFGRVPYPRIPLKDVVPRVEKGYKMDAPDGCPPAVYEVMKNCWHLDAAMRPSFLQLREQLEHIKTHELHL
UniProt P48729: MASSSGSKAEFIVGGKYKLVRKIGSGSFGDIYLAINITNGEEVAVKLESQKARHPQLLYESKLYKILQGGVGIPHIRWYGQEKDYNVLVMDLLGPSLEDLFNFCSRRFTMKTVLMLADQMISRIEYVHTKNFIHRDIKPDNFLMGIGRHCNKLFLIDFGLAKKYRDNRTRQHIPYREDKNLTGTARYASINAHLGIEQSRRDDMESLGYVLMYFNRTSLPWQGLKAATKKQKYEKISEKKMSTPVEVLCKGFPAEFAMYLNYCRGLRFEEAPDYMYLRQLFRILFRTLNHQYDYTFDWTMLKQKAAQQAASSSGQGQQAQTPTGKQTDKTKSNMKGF
UniProt P48730: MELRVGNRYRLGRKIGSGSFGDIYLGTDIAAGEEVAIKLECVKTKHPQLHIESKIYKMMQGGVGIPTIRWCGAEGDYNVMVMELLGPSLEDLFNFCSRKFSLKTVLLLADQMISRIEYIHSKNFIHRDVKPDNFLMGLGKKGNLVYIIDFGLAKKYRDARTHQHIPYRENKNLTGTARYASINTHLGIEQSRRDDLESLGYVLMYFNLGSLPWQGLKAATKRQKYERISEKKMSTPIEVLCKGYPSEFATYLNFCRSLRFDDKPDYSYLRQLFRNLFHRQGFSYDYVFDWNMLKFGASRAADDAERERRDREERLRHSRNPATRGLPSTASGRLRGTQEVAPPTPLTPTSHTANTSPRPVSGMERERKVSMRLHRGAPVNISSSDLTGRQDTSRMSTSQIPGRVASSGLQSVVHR
UniProt Q08345: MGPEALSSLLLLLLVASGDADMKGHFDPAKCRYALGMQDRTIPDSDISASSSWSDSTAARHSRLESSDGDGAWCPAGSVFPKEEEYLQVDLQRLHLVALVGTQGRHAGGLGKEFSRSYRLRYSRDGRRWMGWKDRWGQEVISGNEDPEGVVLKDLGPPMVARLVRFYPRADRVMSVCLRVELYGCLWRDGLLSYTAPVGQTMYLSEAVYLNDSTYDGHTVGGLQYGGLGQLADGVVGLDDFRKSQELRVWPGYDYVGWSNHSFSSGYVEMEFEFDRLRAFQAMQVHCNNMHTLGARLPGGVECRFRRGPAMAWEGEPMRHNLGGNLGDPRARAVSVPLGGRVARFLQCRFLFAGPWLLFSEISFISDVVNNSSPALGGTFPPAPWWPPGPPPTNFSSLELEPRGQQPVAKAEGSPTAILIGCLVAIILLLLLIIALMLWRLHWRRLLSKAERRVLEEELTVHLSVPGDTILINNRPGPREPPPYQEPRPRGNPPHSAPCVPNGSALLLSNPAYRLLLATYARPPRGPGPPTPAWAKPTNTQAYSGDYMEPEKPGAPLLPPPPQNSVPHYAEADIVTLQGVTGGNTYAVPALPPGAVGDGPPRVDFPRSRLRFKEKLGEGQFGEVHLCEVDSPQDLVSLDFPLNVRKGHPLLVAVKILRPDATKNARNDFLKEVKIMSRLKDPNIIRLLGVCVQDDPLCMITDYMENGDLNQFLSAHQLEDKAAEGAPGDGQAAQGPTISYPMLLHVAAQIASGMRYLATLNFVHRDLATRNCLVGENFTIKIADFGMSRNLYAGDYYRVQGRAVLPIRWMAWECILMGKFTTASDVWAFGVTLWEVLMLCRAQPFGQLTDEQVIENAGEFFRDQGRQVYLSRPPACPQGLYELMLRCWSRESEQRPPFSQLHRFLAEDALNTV
UniProt Q9Y463, whole entry, looked up: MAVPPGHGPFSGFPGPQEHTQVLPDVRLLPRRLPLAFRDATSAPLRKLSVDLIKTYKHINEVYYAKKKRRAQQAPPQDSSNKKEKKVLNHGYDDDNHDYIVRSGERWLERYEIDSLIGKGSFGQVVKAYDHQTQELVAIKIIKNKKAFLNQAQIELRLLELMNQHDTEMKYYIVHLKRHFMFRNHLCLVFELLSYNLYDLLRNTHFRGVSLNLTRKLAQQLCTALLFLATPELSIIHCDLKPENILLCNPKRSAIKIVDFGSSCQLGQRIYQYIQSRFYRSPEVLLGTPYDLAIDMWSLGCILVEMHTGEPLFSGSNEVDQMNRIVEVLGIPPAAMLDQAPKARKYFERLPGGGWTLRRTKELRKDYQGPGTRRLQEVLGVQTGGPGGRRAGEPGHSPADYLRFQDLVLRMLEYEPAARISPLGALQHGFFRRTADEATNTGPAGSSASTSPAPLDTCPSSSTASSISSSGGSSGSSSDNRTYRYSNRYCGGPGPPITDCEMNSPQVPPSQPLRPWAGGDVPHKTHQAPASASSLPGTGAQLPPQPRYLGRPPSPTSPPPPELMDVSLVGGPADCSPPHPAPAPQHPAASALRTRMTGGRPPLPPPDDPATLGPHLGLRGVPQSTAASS
UniProt Q92630: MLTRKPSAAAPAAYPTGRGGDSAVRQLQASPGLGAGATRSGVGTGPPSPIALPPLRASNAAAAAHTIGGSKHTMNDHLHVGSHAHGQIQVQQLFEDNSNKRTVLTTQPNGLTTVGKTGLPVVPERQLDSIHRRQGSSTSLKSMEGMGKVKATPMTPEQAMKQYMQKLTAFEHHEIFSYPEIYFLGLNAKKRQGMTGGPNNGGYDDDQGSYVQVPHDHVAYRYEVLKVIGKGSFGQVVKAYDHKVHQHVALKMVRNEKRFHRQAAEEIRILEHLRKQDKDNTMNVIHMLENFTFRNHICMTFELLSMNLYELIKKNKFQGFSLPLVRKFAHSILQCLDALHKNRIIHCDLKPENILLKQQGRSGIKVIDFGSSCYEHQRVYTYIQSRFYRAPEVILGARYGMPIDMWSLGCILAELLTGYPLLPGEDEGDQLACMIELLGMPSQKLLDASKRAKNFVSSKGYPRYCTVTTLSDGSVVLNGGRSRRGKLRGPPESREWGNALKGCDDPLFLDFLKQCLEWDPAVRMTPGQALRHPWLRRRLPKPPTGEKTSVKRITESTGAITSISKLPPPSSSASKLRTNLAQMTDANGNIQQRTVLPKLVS

Among the targets are CDK7 (UniProt P50613); CDK9 (UniProt P50750); CHEK2 (UniProt O96017); CSF1R (UniProt P07333); CSK (UniProt P41240); CSNK1A1 (UniProt P48729); CSNK1D (UniProt P48730); DDR1 (UniProt Q08345); DYRK1B (UniProt Q9Y463); DYRK2 (UniProt Q92630).
Test in all cases: kinase-Nluc reporter destabilization hit call (1 = scored as downregulated) (binary); higher = compound decreases kinase abundance
What all share (settings): K562, 2-18 h

The structures appear in SMILES notation. Structures can show the parent of a compound that is named as a salt. This is one part of the list. The calls rarely recur for the same compound in another form.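 In K562 cells expressing nanoluciferase-fused kinases, luminescence was recorded at 4 h intervals between 2 and 18 h, normalized as percent of control with DMSO at 100% and a positive control at 0%. A significant (2 sigma) signal drop marks a time point as decreased. The authors' rule for a hit is not shown and takes in more than the number of time points.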

For `COC(=O)[C@H](CC(C)C)NC(=O)c1ccc(NC[C@@H](N)CS)cc1-c1cccc2ccccc12` [GGTI298 (Trifluoroacetate)], the “kinase-Nluc reporter destabilization hit call” value with CDK7 (10 µM), with CDK9 (10 µM), with CHEK2 (10 µM), with CSF1R (10 µM), in the assay with CSK (10 µM) and in the assay with CSNK1A1 (10 µM) was inactive: 0 throughout. Also, the “kinase-Nluc reporter destabilization hit call” value with CSNK1D (10 µM), with DDR1 (10 µM), with DYRK1B (10 µM) and with DYRK2 (10 µM) was inactive: 0 throughout.
As for `C/C=C1\C(=O)C[C@H]2[C@@H]3CCC4=CC(=O)CC[C@]4(C)[C@H]3CC[C@]12C` [(Z)-Guggulsterone], the “kinase-Nluc reporter destabilization hit call” value in the assay with CDK7 (10 µM), with CDK9 (10 µM), with CHEK2 (10 µM), in the assay with CSF1R (10 µM), with CSK (10 µM) and with CSNK1A1 (10 µM) was inactive: 0 throughout. Besides, the “kinase-Nluc reporter destabilization hit call” value in the assay with CSNK1D (10 µM), in the assay with DDR1 (10 µM), in the assay with DYRK1B (10 µM) and in the assay with DYRK2 (10 µM) was inactive: 0 each time.
For `C=CC(=O)Nc1cc2c(Nc3ccc(F)c(Cl)c3)ncnc2cc1C#CC(C)(C)N1CCN(C)CC1`, the “kinase-Nluc reporter destabilization hit call” value with CDK7 (2.5 µM), in the assay with CDK9 (2.5 µM), in the assay with CHEK2 (2.5 µM), in the assay with CSF1R (2.5 µM), with CSK (2.5 µM) and with CSNK1A1 (2.5 µM) was inactive: 0 in each case. Besides, the “kinase-Nluc reporter destabilization hit call” value was inactive: 0 with CSNK1D (2.5 µM), active: 1 in the assay with DDR1 (2.5 µM), inactive: 0 in the assay with DYRK1B (2.5 µM) and active: 1 in the assay with DYRK2 (2.5 µM).
For the compound `Nc1ncnc2c1c(-c1ccc(Oc3ccccc3)cc1)nn2[C@@H]1CCCNC1` [IBT6A (hydrochloride)], the “kinase-Nluc reporter destabilization hit call” value with CDK7 (2.5 µM), in the assay with CDK9 (2.5 µM), in the assay with CHEK2 (2.5 µM), with CSF1R (2.5 µM), with CSK (2.5 µM) and in the assay with CSNK1A1 (2.5 µM) was inactive: 0 each time. In addition, the “kinase-Nluc reporter destabilization hit call” value in the assay with CSNK1D (2.5 µM), in the assay with DDR1 (2.5 µM), in the assay with DYRK1B (2.5 µM) and with DYRK2 (2.5 µM) was inactive: 0 each time.
For `C/C=C1\C(=O)C[C@H]2[C@@H]3CCC4=CC(=O)CC[C@]4(C)[C@H]3CC[C@]12C` [Guggulsterone], the “kinase-Nluc reporter destabilization hit call” value with CDK7 (10 µM), with CDK9 (10 µM), with CHEK2 (10 µM), with CSF1R (10 µM), with CSK (10 µM) and in the assay with CSNK1A1 (10 µM) was inactive: 0 in each case. Further, the “kinase-Nluc reporter destabilization hit call” value with CSNK1D (10 µM), in the assay with DDR1 (10 µM), with DYRK1B (10 µM) and with DYRK2 (10 µM) was inactive: 0 in each case.
In the case of `O=C1Nc2ccccc2/C1=C/c1ccccn1` [GSK-3β inhibitor 1], the “kinase-Nluc reporter destabilization hit call” value with CDK7 (10 µM), in the assay with CDK9 (10 µM), in the assay with CHEK2 (10 µM), in the assay with CSF1R (10 µM), with CSK (10 µM) and with CSNK1A1 (10 µM) was inactive: 0 in each case. In addition, the “kinase-Nluc reporter destabilization hit call” value in the assay with CSNK1D (10 µM), with DDR1 (10 µM), with DYRK1B (10 µM) and in the assay with DYRK2 (10 µM) was inactive: 0 in each case.
With `O=C(Nc1cnn2ccc(N3CCC[C@@H]3c3cc(F)ccc3F)nc12)N1CC[C@H](O)C1` [Larotrectinib sulfate], the “kinase-Nluc reporter destabilization hit call” value with CDK7 (10 µM), in the assay with CDK9 (10 µM), with CHEK2 (10 µM), in the assay with CSF1R (10 µM), with CSK (10 µM) and with CSNK1A1 (10 µM) was inactive: 0 throughout. For the same compound, the “kinase-Nluc reporter destabilization hit call” value in the assay with CSNK1D (10 µM), in the assay with DDR1 (10 µM), with DYRK1B (10 µM) and with DYRK2 (10 µM) was inactive: 0 each time.
For `CC(=O)Nc1cccc(-n2c(=O)n(C3CC3)c(=O)c3c(Nc4ccc(I)cc4F)n(C)c(=O)c(C)c32)c1` [Trametinib (DMSO solvate)], the “kinase-Nluc reporter destabilization hit call” value with CDK7 (10 µM), with CDK9 (10 µM), with CHEK2 (10 µM), in the assay with CSF1R (10 µM), in the assay with CSK (10 µM) and with CSNK1A1 (10 µM) was inactive: 0 in each case. For the same compound, the “kinase-Nluc reporter destabilization hit call” value with CSNK1D (10 µM), in the assay with DDR1 (10 µM), with DYRK1B (10 µM) and with DYRK2 (10 µM) was inactive: 0 in each case.
For `C=CC(=O)Nc1cc(Nc2nccc(-c3cn(C4CC4)c4ccccc34)n2)c(OC)cc1N(C)CCN(C)C` [Almonertinib], the “kinase-Nluc reporter destabilization hit call” value with CDK7 (2.5 µM), with CDK9 (2.5 µM), with CHEK2 (2.5 µM), with CSF1R (2.5 µM), with CSK (2.5 µM) and with CSNK1A1 (2.5 µM) was inactive: 0 each time. For the same compound, the “kinase-Nluc reporter destabilization hit call” value with CSNK1D (2.5 µM), with DDR1 (2.5 µM), with DYRK1B (2.5 µM) and with DYRK2 (2.5 µM) was inactive: 0 in each case.
For the compound `C[C@H](CCC(=O)NCCS(=O)(=O)O)[C@H]1CC[C@H]2[C@@H]3[C@@H](O)C[C@@H]4C[C@H](O)CC[C@]4(C)[C@H]3CC[C@]12C` [Tauroursodeoxycholate (dihydrate)], the “kinase-Nluc reporter destabilization hit call” value with CDK7 (10 µM), in the assay with CDK9 (10 µM), in the assay with CHEK2 (10 µM), in the assay with CSF1R (10 µM), with CSK (10 µM) and with CSNK1A1 (10 µM) was inactive: 0 each time. For the same compound, the “kinase-Nluc reporter destabilization hit call” value with CSNK1D (10 µM), with DDR1 (10 µM), in the assay with DYRK1B (10 µM) and with DYRK2 (10 µM) was inactive: 0 in each case.
Take `CCN(CC)Cc1ccc(OC)c(-c2cc3c(-c4ccc(C(=O)O)c(C(C)C)c4)ccnc3[nH]2)c1`: the “kinase-Nluc reporter destabilization hit call” value in the assay with CDK7 (2.5 µM), in the assay with CDK7 (10 µM), with CDK9 (2.5 µM), with CDK9 (10 µM), with CHEK2 (2.5 µM) and with CHEK2 (10 µM) was inactive: 0 throughout. The “kinase-Nluc reporter destabilization hit call” value with CSF1R (2.5 µM), with CSF1R (10 µM), in the assay with CSK (2.5 µM), with CSK (10 µM), in the assay with CSNK1A1 (2.5 µM) and with CSNK1A1 (10 µM) was inactive: 0 each time. Besides, the “kinase-Nluc reporter destabilization hit call” value with CSNK1D (2.5 µM), with CSNK1D (10 µM), with DDR1 (2.5 µM), with DDR1 (10 µM), in the assay with DYRK1B (2.5 µM) and with DYRK1B (10 µM) was inactive: 0 each time. The “kinase-Nluc reporter destabilization hit call” value in the assay with DYRK2 (2.5 µM) and in the assay with DYRK2 (10 µM) was inactive: 0 each time.
`C=CC(=O)N1CCN(c2ncnc3c(F)c(-c4c(O)cccc4F)c(Cl)cc23)CC1`: the “kinase-Nluc reporter destabilization hit call” value with CDK7 (2.5 µM), in the assay with CDK7 (10 µM), with CDK9 (2.5 µM), with CDK9 (10 µM), in the assay with CHEK2 (2.5 µM) and with CHEK2 (10 µM) was inactive: 0 each time. The “kinase-Nluc reporter destabilization hit call” value with CSF1R (2.5 µM), in the assay with CSF1R (10 µM), in the assay with CSK (2.5 µM), with CSK (10 µM), with CSNK1A1 (2.5 µM) and in the assay with CSNK1A1 (10 µM) was inactive: 0 in each case. Further, the “kinase-Nluc reporter destabilization hit call” value with CSNK1D (2.5 µM), with CSNK1D (10 µM), in the assay with DDR1 (2.5 µM), in the assay with DDR1 (10 µM), in the assay with DYRK1B (2.5 µM) and in the assay with DYRK1B (10 µM) was inactive: 0 in each case. The “kinase-Nluc reporter destabilization hit call” value with DYRK2 (2.5 µM) and with DYRK2 (10 µM) was inactive: 0 in each case.
